Data as given in PubChem BioAssay AID686938 (Drosophila RNAi Screening Center, 2013).
Screen: 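Looking for CRAC channel components and the factors controlling them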 (primary screen). System: Drosophila S2R+ cells. Reagent: long dsRNA against Drosophila genes, about 0.25 µg dsRNA per well, roughly 10,000 cells. Timing: 5 days of knock-down before the calcium assay. Treatment: thapsigargin (SERCA pump blocker) to empty calcium stores; entry signal taken 4 min after adding it. Read-out: 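Per-well fluo-4 fluorescence in two replicates, unnormalised, measured in resting cells and 4 min after store depletion by the SERCA blocker thapsigargin; ratio of the two present in few wells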. Direction: calcium entry signal: higher = stronger calcium signal after store depletion; entry to resting ratio: higher = more calcium entry relative to resting level; resting calcium signal: higher = higher resting calcium signal. Hit rule: 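Called when the plate z-score of the entry-to-rest ratio, mean of duplicates, falls below −3; wells with low overall dye signal (Fmax z below −2) or more than five off-targets excluded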. Calls: active = strongly reduced calcium entry; inactive = no strong reduction.
In all, the deposit lists about 23,000 reagents; this is a random part of those that have a named target and a result. Over the whole deposit, 75 (0.33%) are marked active. 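Raw plate signals without normalisation; calls rest on plate z-scores that were not deposited; ratio present for only 364 wells.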 A number with no mark means an inactive call. A plus sign joins genes that one reagent is predicted to hit. The record does not give: the dose of the treatment.

gene | amplicon | calcium entry signal, replicate 1 (fluorescence units) | calcium entry signal, replicate 2 (fluorescence units) | entry to resting ratio | resting calcium signal, replicate 1 (fluorescence units) | resting calcium signal, replicate 2 (fluorescence units)
Pfdn4 (GeneID 38615) | DRSC09761 | 2.96e7 | 4.17e7 | – | 1.47e7 | 1.92e7
brk (GeneID 31665) | DRSC18745 | 3.45e7 | 3.88e7 | – | 1.72e7 | 1.99e7
brk (GeneID 31665) | DRSC23036 | 3.02e7 | 3.41e7 | – | 1.58e7 | 1.70e7
CG15399 (GeneID 33472) | DRSC00413 | 3.80e7 | 5.11e7 | – | 1.76e7 | 1.84e7
CG12688 (retired record) (GeneID 31378) | DRSC17877 | 2.34e7 | 4.45e7 | – | 1.30e7 | 2.35e7
CG12688 (retired record) (GeneID 31378) | DRSC17878 | 2.93e7 | 4.21e7 | – | 1.37e7 | 2.34e7
Hrb87F (GeneID 48535) | DRSC16708 | 3.00e7 | 3.36e7 | – | 1.21e7 | 1.53e7
aralar1 (GeneID 43616) | DRSC13987 | 3.59e7 | 2.74e7 | – | 1.67e7 | 1.16e7
aralar1 (GeneID 43616) | DRSC16901 | 3.02e7 | 4.02e7 | – | 1.62e7 | 1.86e7
CG14071 (GeneID 34507) | DRSC02374 | 3.53e7 | 4.31e7 | – | 1.74e7 | 1.92e7
nocte (GeneID 31976) | DRSC18123 | 4.79e7 | 4.14e7 | – | 2.35e7 | 2.10e7
spn-D (GeneID 318579) | DRSC22641 | 4.10e7 | 3.04e7 | – | 2.09e7 | 1.34e7
nAChRalpha1 (GeneID 42918) | DRSC13664 | 3.93e7 | 3.25e7 | – | 1.94e7 | 1.77e7
nAChRalpha1 (GeneID 42918) | DRSC13670 | 4.00e7 | 4.12e7 | – | 1.87e7 | 2.18e7
nAChRalpha1 (GeneID 42918) | DRSC13672 | 4.09e7 | 4.16e7 | – | 1.83e7 | 1.85e7
nAChRalpha1 (GeneID 42918) | DRSC17008 | 3.86e7 | 4.84e7 | – | 2.10e7 | 1.83e7
Pstk + CG14210 + Tim9b | DRSC19566 | 2.14e7 | 2.00e7 | – | 1.44e7 | 1.20e7
CG5023 (GeneID 42400) | DRSC15697 | 3.74e7 | 4.29e7 | – | 4.82e7 | 1.90e7
Pgcl (GeneID 30984) | DRSC18815 | 3.95e7 | 3.96e7 | 2.3 | 1.74e7 | 1.57e7
Blos1 (GeneID 246439) | DRSC05970 | 2.27e7 | 4.35e7 | – | 1.26e7 | 1.72e7
CG7728 (GeneID 39904) | DRSC10907 | 2.28e7 | 3.46e7 | – | 1.24e7 | 2.58e7

Records listed so far whose gene name begins with P or p (3):
gene | amplicon | calcium entry signal, replicate 1 (fluorescence units) | calcium entry signal, replicate 2 (fluorescence units) | entry to resting ratio | resting calcium signal, replicate 1 (fluorescence units) | resting calcium signal, replicate 2 (fluorescence units)
Pfdn4 (GeneID 38615) | DRSC09761 | 2.96e7 | 4.17e7 | – | 1.47e7 | 1.92e7
Pstk + CG14210 + Tim9b | DRSC19566 | 2.14e7 | 2.00e7 | – | 1.44e7 | 1.20e7
Pgcl (GeneID 30984) | DRSC18815 | 3.95e7 | 3.96e7 | 2.3 | 1.74e7 | 1.57e7

The results go on.
gene | amplicon | calcium entry signal, replicate 1 (fluorescence units) | calcium entry signal, replicate 2 (fluorescence units) | entry to resting ratio | resting calcium signal, replicate 1 (fluorescence units) | resting calcium signal, replicate 2 (fluorescence units)
CG11426 (GeneID 40471) | DRSC11658 | 2.62e7 | 5.09e7 | – | 1.36e7 | 2.24e7
CG2256 (GeneID 31727) | DRSC18220 | 3.52e7 | 4.12e7 | – | 1.74e7 | 1.94e7
kipf (GeneID 40937) | DRSC15446 | 4.74e7 | 5.99e7 | – | 2.19e7 | 2.68e7
kipf (GeneID 40937) | DRSC22871 | 2.75e7 | 3.29e7 | – | 1.78e7 | 1.65e7
CG10214 (GeneID 42811) | DRSC14213 | 4.76e7 | 3.73e7 | – | 2.21e7 | 1.63e7
CG2656 (GeneID 40857) | DRSC12584 | 4.52e7 | 4.08e7 | – | 1.80e7 | 1.91e7
CG11404 (GeneID 40474) | DRSC11656 | 3.10e7 | 4.69e7 | – | 1.64e7 | 2.10e7
CG1143 (GeneID 38329) | DRSC08188 | 4.07e7 | 4.81e7 | – | 1.82e7 | 2.07e7
CG34234 + Dh44-R2 | DRSC07278 | 3.96e7 | 4.30e7 | – | 1.65e7 | 2.09e7
CG3163 (GeneID 37836) | DRSC04341 | 4.09e7 | – | – | 2.11e7 | –
pcs (GeneID 36674) | DRSC07042 | 4.44e7 | 3.68e7 | – | 2.09e7 | 1.77e7
Ugt37D1 (GeneID 53511) | DRSC02645 | 3.90e7 | 2.20e7 | – | 1.82e7 | 1.11e7
Ref1 (GeneID 44029) | DRSC12497 | 4.64e7 | 5.30e7 | – | 1.86e7 | 2.27e7
Ref1 (GeneID 44029) | DRSC22387 | 3.72e7 | 4.44e7 | – | 1.62e7 | 2.47e7
Kaz-m1 (GeneID 43154) | DRSC16990 | 3.05e7 | 6.61e7 | – | 1.71e7 | 2.73e7
Chsy (GeneID 32497) | DRSC20175 | 2.47e7 | 2.96e7 | – | 1.36e7 | 1.48e7
Chsy (GeneID 32497) | DRSC20176 | 2.74e7 | 3.11e7 | – | 1.45e7 | 1.45e7
CG8620 (GeneID 50310) | DRSC11020 | 1.96e7 | 3.50e7 | – | 1.07e7 | 1.65e7
CG9021 (GeneID 33818) | DRSC03128 | 4.27e7 | – | – | 2.32e7 | –
